The target of assay [1] is subunit VIb of bovine cytochrome c oxidase (bovine) (UniProt P00429). In words: crystal structure; co-crystallised by the batch-wise method at 277 K; 15 mM sodium phosphate pH 8.0, DM and FOM, Cyt.c/CcO molar ratio 1.2, ~5% PEG 4000; ferri-Cyt.c and oxidized CcO; crystals soaked with 50 uM Cyt.c; refined at 2.0 A; both purified.
Assay [2] addresses subunit II of bovine cytochrome c oxidase (bovine) (UniProt P68530). The assay is described as above.

By UniProt entry, the sequences of proteins in these tests, tags left out. Where a name states a change or a piece, a line headed by the entry shows the natural chain unless it says otherwise.
UniProt P00429: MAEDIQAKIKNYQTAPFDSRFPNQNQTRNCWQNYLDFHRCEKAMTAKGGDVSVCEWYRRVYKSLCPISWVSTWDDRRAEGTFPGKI
UniProt P68530: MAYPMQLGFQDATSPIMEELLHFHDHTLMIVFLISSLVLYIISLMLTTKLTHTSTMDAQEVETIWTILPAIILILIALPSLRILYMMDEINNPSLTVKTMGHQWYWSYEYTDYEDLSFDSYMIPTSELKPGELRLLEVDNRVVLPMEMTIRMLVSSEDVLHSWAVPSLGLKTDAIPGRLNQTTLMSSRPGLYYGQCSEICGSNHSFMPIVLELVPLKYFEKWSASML
UniProt P00004: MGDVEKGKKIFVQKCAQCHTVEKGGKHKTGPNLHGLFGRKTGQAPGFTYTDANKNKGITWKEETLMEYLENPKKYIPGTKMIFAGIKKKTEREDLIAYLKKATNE

No constants are given. Whether binding was seen depends on the method and setting. Binding can be weak; no strength is given.

In the case of “horse heart cytochrome c (from UniProt P00004 1-105)”, the binding entry in assay [1] and in assay [2] was “binds” in each case.

Values taken from paper PMC5286356.
